Source: PubChem BioAssay AID1053133 (Broad Institute, 2014).

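Plate-reader measure of the Venus reporter marking one vaccinia stage in infected cells (the cell line is not named here); read time unknown. The test concentration is not given here. Percent change in Venus reporter signal; lower (more negative) values mean stronger inhibition of that viral stage.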

Values are in %. The controls that fix the scale are not given here. Common to all entries: measured here: Venus reporter, other viral stage. This is a side read-out of the assay, for part of the compounds, not drawn at random.

{"compound": "C[C@@H]1CN([C@H](C)CO)C(=O)c2cc(C#CCN(C)C)cnc2O[C@H]1CN(C)Cc1ccc(-c2ccccc2)cc1", "activity change (Venus) (%)": "-80.62"}
{"compound": "COc1ccc(-c2ccc3c(c2)[C@@H]2[C@@H](CCN2S(=O)(=O)C2=NC(C)C=N2)[C@H](CO)N3C)cc1", "stereo": "stereo partly specified", "activity change (Venus) (%)": "-21.14"}
{"compound": "C[C@@H]1CN([C@H](C)CO)S(=O)(=O)c2ccc(C#CC3CCCC3)cc2O[C@@H]1CN(C)C", "activity change (Venus) (%)": "-48.18"}
{"compound": "CCCNC(=O)N(C)C[C@H]1N[C@@H](CO)[C@@H]1c1ccc(C2=CCCCC2)cc1", "activity change (Venus) (%)": "-41.63"}
{"compound": "CN1CCCCN2[C@H](C1)[C@@H](c1ccc(-c3ccc(F)cc3)cc1)[C@@H]2CO", "activity change (Venus) (%)": "-24.52"}
{"compound": "Cc1ccc(S(=O)(=O)Nc2ccc3c(c2)C(=O)N([C@@H](C)CO)C[C@@H](C)[C@@H](CN(C)S(=O)(=O)c2ccccc2)OCCCC[C@@H](C)O3)cc1", "activity change (Venus) (%)": "-20.75"}
{"compound": "C[C@@H]1CCCCO[C@@H](CN(C)CC2CCCCC2)[C@H](C)CN([C@H](C)CO)C(=O)c2cc(NC(=O)Nc3ccccc3)ccc2O1", "activity change (Venus) (%)": "-60.3"}
{"compound": "C[C@@H]1CCCCO[C@H](CN(C)C(=O)CCC(F)(F)F)[C@H](C)CN([C@H](C)CO)C(=O)c2cc(NS(=O)(=O)c3ccc(F)cc3)ccc2O1", "activity change (Venus) (%)": "-28.15"}
{"compound": "COc1ccc(S(=O)(=O)N(C)C[C@@H]2OCCCC[C@@H](C)Oc3ccc(NS(=O)(=O)c4cccs4)cc3C(=O)N([C@@H](C)CO)C[C@H]2C)cc1", "activity change (Venus) (%)": "-42.07"}
{"compound": "COc1ccccc1C#Cc1ccc2c(c1)O[C@@H](CN(C)Cc1ccncc1)[C@H](C)CN([C@@H](C)CO)S2(=O)=O", "activity change (Venus) (%)": "-15.64"}
{"compound": "O=C(c1ccccc1F)N1CC(=O)N2[C@H](CO)[C@@H](c3ccc(-c4ccc(F)cc4)cc3)[C@@H]2C1", "activity change (Venus) (%)": "-51.42"}
{"compound": "C[C@@H]1CN([C@@H](C)CO)C(=O)c2cc(NC(=O)Nc3ccc(C(F)(F)F)cc3)ccc2O[C@@H]1CN(C)CC1CCCCC1", "activity change (Venus) (%)": "-73.05"}
{"compound": "O=S(=O)(Cc1ccccc1)N1CCCCN2[C@H](CO)[C@H](c3ccc(-c4ccc(F)cc4)cc3)[C@H]2C1", "activity change (Venus) (%)": "-70.16"}
{"compound": "C[C@@H]1CCCCO[C@@H](CN(C)Cc2ccc(C(F)(F)F)cc2)[C@H](C)CN([C@H](C)CO)C(=O)c2cc(NS(=O)(=O)c3ccc(Cl)cc3)ccc2O1", "activity change (Venus) (%)": "-66.89"}
{"compound": "O=C(Nc1ccc(F)cc1)N1CC(=O)N2[C@H](CO)[C@@H](c3ccc(-c4cccc(F)c4)cc3)[C@H]2C1", "activity change (Venus) (%)": "-36.43"}
{"compound": "C[C@H](CO)N1C[C@H](C)[C@@H](CN(C)Cc2ccc(Cl)c(Cl)c2)Oc2ccc(NS(=O)(=O)c3cccs3)cc2CC1=O", "activity change (Venus) (%)": "-69.26"}
{"compound": "COc1ccc2c3c(n(C)c2c1)[C@@H](CO)NCC31CN(Cc2ccc(-c3ccccn3)cc2)C1", "activity change (Venus) (%)": "-42.27"}
{"compound": "COc1cccc(-c2ccc3c(c2)O[C@@H](CN(C)Cc2cccnc2)[C@H](C)CN([C@H](C)CO)S3(=O)=O)c1", "activity change (Venus) (%)": "-50.57"}

For reference, 2 entries once more:

{"compound": "Cc1ccc(S(=O)(=O)Nc2ccc3c(c2)C(=O)N([C@@H](C)CO)C[C@@H](C)[C@@H](CN(C)S(=O)(=O)c2ccccc2)OCCCC[C@@H](C)O3)cc1", "activity change (Venus) (%)": "-20.75"}
{"compound": "O=C(Nc1ccc(F)cc1)N1CC(=O)N2[C@H](CO)[C@@H](c3ccc(-c4cccc(F)c4)cc3)[C@H]2C1", "activity change (Venus) (%)": "-36.43"}